± gives the standard deviation of the averaged measurements. This data set is noisy: repeats of one test often differ as much as different tests do.
Key:
XL888 [1] = compound: T1, CC[C@@H](C)Nc1cc(C(=O)N[C@H]2C[C@H]3CC[C@@H](C2)N3c2ccc(C(=O)C3CC3)cn2)c(C)cc1C(N)=O [XL888]; experiment: phosphopeptide melting temperature shift (XL888 minus DMSO); higher = stabilised by drug treatment; settings: 100 µM; treatment time 2 h; layout: intact cells; SK-Mel 28
Procedure: (§1)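 Phospho-TPP in intact SK-Mel 28 cells treated with 100 uM XL888 or DMSO for 2 h, heated at 10 temperatures (37-67 C) for 3 min, soluble fraction TMT10plex-labelled and TiO2 phospho-enriched. Melting curves were fitted per phosphopeptide; the value is the melting point difference (drug minus vehicle) in each of two biological replicates.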

Protein sequences, listed by entry. Tags and fused reporters are not part of them. Lines headed by an entry give the natural chain unless they say otherwise; changes in a name come on top.
UniProt Q9NWV8, whole entry, looked up: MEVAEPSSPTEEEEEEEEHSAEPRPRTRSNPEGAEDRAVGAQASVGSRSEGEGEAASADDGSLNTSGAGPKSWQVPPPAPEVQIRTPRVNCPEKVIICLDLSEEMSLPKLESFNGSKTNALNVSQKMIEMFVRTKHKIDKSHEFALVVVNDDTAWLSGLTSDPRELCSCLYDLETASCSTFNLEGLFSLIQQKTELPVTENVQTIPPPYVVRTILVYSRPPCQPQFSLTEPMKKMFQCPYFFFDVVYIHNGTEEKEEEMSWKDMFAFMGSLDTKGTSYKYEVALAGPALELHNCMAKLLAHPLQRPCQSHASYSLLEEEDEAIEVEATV
UniProt Q9NYF8, whole entry, looked up: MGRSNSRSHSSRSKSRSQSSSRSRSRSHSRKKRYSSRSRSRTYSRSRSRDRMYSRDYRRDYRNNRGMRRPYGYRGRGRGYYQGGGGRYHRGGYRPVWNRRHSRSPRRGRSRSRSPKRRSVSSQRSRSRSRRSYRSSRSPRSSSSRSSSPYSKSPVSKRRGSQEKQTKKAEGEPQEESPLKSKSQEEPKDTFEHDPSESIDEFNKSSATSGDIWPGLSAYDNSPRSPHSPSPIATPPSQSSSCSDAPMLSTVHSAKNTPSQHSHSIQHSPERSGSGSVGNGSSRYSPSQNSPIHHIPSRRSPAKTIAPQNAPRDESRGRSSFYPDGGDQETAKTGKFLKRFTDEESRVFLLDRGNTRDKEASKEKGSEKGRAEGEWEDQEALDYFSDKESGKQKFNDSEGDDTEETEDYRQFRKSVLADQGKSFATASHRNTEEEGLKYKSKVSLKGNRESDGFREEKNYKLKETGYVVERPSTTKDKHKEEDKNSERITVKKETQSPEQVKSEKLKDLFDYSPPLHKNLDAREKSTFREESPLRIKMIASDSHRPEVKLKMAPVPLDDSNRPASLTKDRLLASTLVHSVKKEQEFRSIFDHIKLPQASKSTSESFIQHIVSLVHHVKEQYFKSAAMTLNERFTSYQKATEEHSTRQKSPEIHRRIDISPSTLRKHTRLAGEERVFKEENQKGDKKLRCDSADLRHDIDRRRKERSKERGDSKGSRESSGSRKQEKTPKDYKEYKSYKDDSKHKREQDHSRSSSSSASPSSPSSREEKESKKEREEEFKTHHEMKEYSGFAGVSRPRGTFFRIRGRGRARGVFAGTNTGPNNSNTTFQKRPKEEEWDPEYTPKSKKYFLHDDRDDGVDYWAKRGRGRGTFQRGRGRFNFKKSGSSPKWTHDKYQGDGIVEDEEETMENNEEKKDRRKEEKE
UniProt Q9UQN3, whole entry, looked up: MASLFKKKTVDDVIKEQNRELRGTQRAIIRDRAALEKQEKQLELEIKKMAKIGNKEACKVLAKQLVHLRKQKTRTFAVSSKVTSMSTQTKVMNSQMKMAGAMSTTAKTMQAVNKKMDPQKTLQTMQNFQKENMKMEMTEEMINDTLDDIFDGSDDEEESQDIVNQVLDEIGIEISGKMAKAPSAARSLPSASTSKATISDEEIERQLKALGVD
UniProt Q68DA7: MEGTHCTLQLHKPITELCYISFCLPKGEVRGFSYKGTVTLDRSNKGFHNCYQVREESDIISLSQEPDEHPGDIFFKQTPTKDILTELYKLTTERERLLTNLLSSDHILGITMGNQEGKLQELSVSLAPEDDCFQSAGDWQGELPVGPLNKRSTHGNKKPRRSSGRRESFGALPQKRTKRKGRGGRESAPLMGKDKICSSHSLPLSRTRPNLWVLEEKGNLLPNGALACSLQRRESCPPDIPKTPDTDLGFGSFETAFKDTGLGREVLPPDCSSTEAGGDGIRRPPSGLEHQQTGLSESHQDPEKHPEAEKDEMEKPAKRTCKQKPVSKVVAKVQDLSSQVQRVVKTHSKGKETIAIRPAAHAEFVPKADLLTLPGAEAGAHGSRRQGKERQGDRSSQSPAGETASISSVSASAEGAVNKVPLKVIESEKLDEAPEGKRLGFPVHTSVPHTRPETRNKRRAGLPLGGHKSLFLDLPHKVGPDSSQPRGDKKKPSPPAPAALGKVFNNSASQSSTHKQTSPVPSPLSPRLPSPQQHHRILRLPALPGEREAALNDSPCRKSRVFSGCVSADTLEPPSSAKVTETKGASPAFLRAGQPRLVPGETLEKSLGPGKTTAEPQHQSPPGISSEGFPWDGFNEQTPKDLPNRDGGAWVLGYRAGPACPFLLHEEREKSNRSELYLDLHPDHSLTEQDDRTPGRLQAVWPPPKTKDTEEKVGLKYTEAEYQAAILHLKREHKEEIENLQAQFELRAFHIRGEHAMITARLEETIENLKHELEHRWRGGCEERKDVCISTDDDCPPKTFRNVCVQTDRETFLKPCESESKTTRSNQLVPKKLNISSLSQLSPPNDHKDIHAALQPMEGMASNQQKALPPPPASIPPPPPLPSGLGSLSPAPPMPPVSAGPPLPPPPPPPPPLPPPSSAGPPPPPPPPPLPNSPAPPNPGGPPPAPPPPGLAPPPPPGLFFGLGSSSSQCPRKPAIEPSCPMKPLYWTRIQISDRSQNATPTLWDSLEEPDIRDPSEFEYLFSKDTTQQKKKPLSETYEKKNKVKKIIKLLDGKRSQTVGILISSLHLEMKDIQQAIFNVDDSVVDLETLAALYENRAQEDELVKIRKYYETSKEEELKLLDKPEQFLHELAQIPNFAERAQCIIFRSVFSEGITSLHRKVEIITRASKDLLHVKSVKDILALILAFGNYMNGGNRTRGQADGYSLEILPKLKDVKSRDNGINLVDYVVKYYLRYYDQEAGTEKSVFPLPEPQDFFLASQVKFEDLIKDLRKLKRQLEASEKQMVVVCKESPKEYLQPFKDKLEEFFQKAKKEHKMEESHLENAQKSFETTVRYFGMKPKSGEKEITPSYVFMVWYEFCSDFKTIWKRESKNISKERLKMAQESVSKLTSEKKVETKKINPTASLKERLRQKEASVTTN
UniProt Q96Q05, whole entry, looked up: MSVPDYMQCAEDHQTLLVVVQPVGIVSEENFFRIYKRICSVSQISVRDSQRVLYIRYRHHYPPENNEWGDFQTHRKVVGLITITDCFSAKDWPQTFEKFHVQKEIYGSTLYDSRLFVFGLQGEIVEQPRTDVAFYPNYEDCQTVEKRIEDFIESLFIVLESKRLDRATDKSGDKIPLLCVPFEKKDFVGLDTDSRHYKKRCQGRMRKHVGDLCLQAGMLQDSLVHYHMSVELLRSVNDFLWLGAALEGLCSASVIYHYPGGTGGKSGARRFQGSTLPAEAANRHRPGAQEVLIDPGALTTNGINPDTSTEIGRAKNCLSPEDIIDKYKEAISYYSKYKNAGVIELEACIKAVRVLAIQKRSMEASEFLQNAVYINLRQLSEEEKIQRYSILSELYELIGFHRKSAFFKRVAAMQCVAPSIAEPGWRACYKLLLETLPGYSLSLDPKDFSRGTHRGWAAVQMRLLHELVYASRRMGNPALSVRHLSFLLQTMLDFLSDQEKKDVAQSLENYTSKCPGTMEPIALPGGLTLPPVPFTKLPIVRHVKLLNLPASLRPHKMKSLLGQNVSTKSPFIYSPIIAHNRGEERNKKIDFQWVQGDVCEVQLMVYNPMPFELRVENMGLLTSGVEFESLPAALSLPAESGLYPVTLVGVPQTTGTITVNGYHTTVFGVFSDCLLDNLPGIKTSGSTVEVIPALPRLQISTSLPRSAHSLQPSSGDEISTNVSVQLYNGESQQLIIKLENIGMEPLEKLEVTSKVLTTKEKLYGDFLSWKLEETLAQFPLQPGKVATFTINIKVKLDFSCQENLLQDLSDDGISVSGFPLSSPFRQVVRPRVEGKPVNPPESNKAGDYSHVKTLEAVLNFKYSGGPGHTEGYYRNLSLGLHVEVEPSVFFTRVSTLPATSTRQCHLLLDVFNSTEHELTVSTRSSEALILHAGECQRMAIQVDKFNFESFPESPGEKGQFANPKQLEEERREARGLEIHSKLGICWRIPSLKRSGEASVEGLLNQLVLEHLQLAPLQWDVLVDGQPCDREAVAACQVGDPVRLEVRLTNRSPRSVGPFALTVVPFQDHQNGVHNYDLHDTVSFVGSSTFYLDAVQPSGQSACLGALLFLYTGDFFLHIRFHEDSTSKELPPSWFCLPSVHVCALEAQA
UniProt Q641Q2, whole entry, looked up: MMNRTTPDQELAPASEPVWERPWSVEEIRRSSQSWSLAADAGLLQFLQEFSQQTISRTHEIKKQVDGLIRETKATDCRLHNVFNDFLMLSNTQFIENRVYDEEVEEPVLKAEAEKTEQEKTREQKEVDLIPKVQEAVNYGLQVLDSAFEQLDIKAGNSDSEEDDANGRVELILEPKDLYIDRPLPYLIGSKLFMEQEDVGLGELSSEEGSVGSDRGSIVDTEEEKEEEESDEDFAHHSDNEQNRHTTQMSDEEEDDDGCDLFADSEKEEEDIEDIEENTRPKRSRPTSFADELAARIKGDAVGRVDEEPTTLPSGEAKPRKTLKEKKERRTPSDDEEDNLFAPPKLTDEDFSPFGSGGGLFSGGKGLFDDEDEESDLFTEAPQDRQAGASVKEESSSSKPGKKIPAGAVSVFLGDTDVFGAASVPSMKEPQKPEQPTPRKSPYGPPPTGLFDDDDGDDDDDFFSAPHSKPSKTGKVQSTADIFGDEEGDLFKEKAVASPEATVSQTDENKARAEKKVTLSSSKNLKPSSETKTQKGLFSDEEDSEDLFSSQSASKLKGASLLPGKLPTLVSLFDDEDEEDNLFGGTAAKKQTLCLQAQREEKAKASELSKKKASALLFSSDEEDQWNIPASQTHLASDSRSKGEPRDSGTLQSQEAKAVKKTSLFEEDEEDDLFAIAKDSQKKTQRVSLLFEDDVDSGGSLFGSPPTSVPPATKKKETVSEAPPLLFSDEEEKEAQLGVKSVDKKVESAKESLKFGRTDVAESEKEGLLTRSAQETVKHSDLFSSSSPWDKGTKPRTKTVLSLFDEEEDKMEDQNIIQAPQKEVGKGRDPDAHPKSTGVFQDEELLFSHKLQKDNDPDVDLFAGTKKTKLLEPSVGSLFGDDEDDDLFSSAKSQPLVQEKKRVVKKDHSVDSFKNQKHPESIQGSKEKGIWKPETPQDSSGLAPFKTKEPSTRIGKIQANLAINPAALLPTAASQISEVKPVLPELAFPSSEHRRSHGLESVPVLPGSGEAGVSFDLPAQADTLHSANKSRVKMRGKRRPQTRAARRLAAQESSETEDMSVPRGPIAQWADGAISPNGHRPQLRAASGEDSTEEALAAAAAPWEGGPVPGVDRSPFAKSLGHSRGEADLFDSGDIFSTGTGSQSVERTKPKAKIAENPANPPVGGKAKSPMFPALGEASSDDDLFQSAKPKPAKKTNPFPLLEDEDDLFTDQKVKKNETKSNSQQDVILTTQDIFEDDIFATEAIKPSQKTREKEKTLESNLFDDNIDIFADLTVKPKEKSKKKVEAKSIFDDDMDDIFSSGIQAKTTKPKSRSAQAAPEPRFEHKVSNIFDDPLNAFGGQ
UniProt Q765P7: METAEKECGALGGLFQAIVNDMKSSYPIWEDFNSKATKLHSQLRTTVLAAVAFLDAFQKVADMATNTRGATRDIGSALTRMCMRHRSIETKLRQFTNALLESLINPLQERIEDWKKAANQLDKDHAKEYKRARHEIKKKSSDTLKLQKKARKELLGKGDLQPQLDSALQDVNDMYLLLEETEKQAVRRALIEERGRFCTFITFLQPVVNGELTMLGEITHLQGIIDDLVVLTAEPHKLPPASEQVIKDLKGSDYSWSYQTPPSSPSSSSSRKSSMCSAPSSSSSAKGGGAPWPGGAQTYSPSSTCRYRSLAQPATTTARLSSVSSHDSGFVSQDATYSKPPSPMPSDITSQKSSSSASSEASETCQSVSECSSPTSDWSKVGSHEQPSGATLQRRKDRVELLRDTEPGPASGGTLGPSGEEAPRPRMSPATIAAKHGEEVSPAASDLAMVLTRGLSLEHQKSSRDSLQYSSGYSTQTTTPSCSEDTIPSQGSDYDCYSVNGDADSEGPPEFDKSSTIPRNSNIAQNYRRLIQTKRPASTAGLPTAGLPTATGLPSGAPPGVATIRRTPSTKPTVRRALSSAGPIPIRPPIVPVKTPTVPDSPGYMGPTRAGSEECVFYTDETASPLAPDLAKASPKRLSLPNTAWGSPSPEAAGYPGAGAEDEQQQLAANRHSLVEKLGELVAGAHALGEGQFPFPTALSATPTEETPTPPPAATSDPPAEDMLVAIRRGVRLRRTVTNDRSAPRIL
UniProt Q01518, whole entry, looked up: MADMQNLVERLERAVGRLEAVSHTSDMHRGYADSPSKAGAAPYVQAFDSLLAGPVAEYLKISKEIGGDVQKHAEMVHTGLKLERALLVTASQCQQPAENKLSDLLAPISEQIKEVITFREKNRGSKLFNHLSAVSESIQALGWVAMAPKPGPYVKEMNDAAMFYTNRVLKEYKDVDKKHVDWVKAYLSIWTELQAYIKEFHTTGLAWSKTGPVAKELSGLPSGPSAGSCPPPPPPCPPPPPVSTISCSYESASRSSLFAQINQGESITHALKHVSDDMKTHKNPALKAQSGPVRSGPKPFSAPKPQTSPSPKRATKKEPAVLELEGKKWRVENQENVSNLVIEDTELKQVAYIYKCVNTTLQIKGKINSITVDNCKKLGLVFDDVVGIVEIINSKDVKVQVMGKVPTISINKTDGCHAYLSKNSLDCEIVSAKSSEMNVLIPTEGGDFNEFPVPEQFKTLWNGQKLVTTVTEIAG

XL888 [2] = compound: T1, XL888; experiment: as above; settings: 100 µM; treatment time 2 h; layout: intact cells; SK-Mel 24
Procedure: as §1, with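 “24” for “28”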

With “UniProt Q9H116-4_phosphosite_122 (phosphosite position: 122)” the “phosphopeptide melting temperature shift” value (XL888 [1]) was -1.46 ± 0.56 °C and the “phosphopeptide melting temperature shift” value (XL888 [2]) was -3.82 °C.
“UniProt Q9NQ55-2_phosphosite_359 (phosphosite position: 359)” was tested, and the “phosphopeptide melting temperature shift” value (XL888 [1]) was -0.107 °C and the “phosphopeptide melting temperature shift” value (XL888 [2]) was 0.522 °C.
For “UniProt Q9NRY4_phosphosite_1179 (phosphosite position: 1179)”, the “phosphopeptide melting temperature shift” value (XL888 [1]) was 0.0365 ± 1.1 °C and the “phosphopeptide melting temperature shift” value (XL888 [2]) was -0.877 °C.
For “UniProt Q9NWV8-3_phosphosite_29 (phosphosite position: 29)”, the “phosphopeptide melting temperature shift” value (XL888 [1]) was 1.52 ± 4.9 °C and the “phosphopeptide melting temperature shift” value (XL888 [2]) was 4.31 °C.
With “UniProt Q9NXR1-2_phosphosite_306 (phosphosite position: 306)” the “phosphopeptide melting temperature shift” value (XL888 [1]) was -0.299 °C and the “phosphopeptide melting temperature shift” value (XL888 [2]) was 0.463 °C.
“UniProt Q9NY27-2_phosphosite_169 (phosphosite position: 169)” was tested, and the “phosphopeptide melting temperature shift” value (XL888 [1]) was 1.79 ± 1.3 °C and the “phosphopeptide melting temperature shift” value (XL888 [2]) was 1.61 °C.
For “UniProt Q9NYB9-2_phosphosite_177 (phosphosite position: 177)”, the “phosphopeptide melting temperature shift” value (XL888 [1]) was 1.24 °C and the “phosphopeptide melting temperature shift” value (XL888 [2]) was 0.315 ± 0.57 °C.
“UniProt Q9NYF8-3_phosphosite_175 (phosphosite position: 175)” was tested, and the “phosphopeptide melting temperature shift” value (XL888 [1]) was 1.98 ± 0.64 °C and the “phosphopeptide melting temperature shift” value (XL888 [2]) was 0.677 °C.
With “UniProt Q9NYF8-3_phosphosite_266 (phosphosite position: 266)” the “phosphopeptide melting temperature shift” value (XL888 [1]) was 1.16 ± 2.6 °C and the “phosphopeptide melting temperature shift” value (XL888 [2]) was 2.71 °C.
In the case of “UniProt Q9NYF8-3_phosphosite_383 (phosphosite position: 383)”, the “phosphopeptide melting temperature shift” value (XL888 [1]) is reported as 0.867 ± 0.29 °C and the “phosphopeptide melting temperature shift” value (XL888 [2]) is reported as 2.82 °C.
In the case of “UniProt Q9NYF8-3_phosphosite_494 (phosphosite position: 494)”, the “phosphopeptide melting temperature shift” value (XL888 [1]) is reported as -0.318 °C and the “phosphopeptide melting temperature shift” value (XL888 [2]) is reported as 3.05 °C.
“UniProt Q9NYV4-2_phosphosite_423 (phosphosite position: 423)” was tested, and the “phosphopeptide melting temperature shift” value (XL888 [1]) was 0.603 °C and the “phosphopeptide melting temperature shift” value (XL888 [2]) was 0.0247 ± 0.034 °C.
For “UniProt Q9NZT2-2_phosphosite_315 (phosphosite position: 315)”, the “phosphopeptide melting temperature shift” value (XL888 [1]) was -0.586 ± 0.16 °C and the “phosphopeptide melting temperature shift” value (XL888 [2]) was -0.00427 °C.
With “UniProt Q9NZT2-2_phosphosite_378 (phosphosite position: 378)” the “phosphopeptide melting temperature shift” value (XL888 [1]) was 1.81 ± 2.7 °C and the “phosphopeptide melting temperature shift” value (XL888 [2]) was 0.563 ± 0.86 °C.
In the case of “UniProt Q9P1Y6-2_phosphosite_973 (phosphosite position: 973)”, the “phosphopeptide melting temperature shift” value (XL888 [1]) is reported as 0.997 °C and the “phosphopeptide melting temperature shift” value (XL888 [2]) is reported as -7.173 ± 0.035 °C.
“UniProt Q9P035_phosphosite_114 (phosphosite position: 114)” was tested, and the “phosphopeptide melting temperature shift” value (XL888 [1]) was -4.46 °C and the “phosphopeptide melting temperature shift” value (XL888 [2]) was 0.868 ± 0.14 °C.
“UniProt Q9UDY2-3_phosphosite_1136 (phosphosite position: 1136)” was tested, and the “phosphopeptide melting temperature shift” value (XL888 [1]) was 1.47 ± 0.84 °C and the “phosphopeptide melting temperature shift” value (XL888 [2]) was -0.21 ± 0.99 °C.
“UniProt Q9UHD8-7_phosphosite_66 (phosphosite position: 66)” was tested, and the “phosphopeptide melting temperature shift” value (XL888 [1]) was 2.53 ± 0.9 °C and the “phosphopeptide melting temperature shift” value (XL888 [2]) was 2.46 ± 0.18 °C.
With “UniProt Q9UK59-2_phosphosite_282 (phosphosite position: 282)” the “phosphopeptide melting temperature shift” value (XL888 [1]) was 4.57 °C and the “phosphopeptide melting temperature shift” value (XL888 [2]) was 0.0181 °C.
“UniProt Q9UKE5-6_phosphosite_678 (phosphosite position: 678)” was tested, and the “phosphopeptide melting temperature shift” value (XL888 [1]) was -0.418 ± 0.31 °C and the “phosphopeptide melting temperature shift” value (XL888 [2]) was -0.474 °C.
With “UniProt Q9UKE5-6_phosphosite_740 (phosphosite position: 740)” the “phosphopeptide melting temperature shift” value (XL888 [1]) was 0.955 ± 1.4 °C and the “phosphopeptide melting temperature shift” value (XL888 [2]) was 0.485 ± 0.34 °C.
In the case of “UniProt Q9ULH7-2_phosphosite_26 (phosphosite position: 26)”, the “phosphopeptide melting temperature shift” value (XL888 [1]) is reported as 0.981 °C and the “phosphopeptide melting temperature shift” value (XL888 [2]) is reported as -0.176 °C.
For “UniProt Q9UMZ2-4_phosphosite_674 (phosphosite position: 674)”, the “phosphopeptide melting temperature shift” value (XL888 [1]) was 0.221 ± 0.34 °C and the “phosphopeptide melting temperature shift” value (XL888 [2]) was 1.56 °C.
“UniProt Q9UN86-2_phosphosite_227 (phosphosite position: 227)” was tested, and the “phosphopeptide melting temperature shift” value (XL888 [1]) was 1.08 ± 1.1 °C and the “phosphopeptide melting temperature shift” value (XL888 [2]) was -0.885 °C.
With “UniProt Q9UPQ9-1_phosphosite_879 (phosphosite position: 879)” the “phosphopeptide melting temperature shift” value (XL888 [1]) was -1.12 °C and the “phosphopeptide melting temperature shift” value (XL888 [2]) was 0.33 °C.
With “UniProt Q9UPU9-2_phosphosite_319 (phosphosite position: 319)” the “phosphopeptide melting temperature shift” value (XL888 [1]) was 2.57 ± 2.5 °C and the “phosphopeptide melting temperature shift” value (XL888 [2]) was -0.114 °C.
“UniProt Q9UQN3-2_phosphosite_158 (phosphosite position: 158)” was tested, and the “phosphopeptide melting temperature shift” value (XL888 [1]) was 4.14 °C and the “phosphopeptide melting temperature shift” value (XL888 [2]) was 1 ± 0.8 °C.
With “UniProt Q9Y6D9-3_phosphosite_336 (phosphosite position: 336)” the “phosphopeptide melting temperature shift” value (XL888 [1]) was 0.145 ± 0.82 °C and the “phosphopeptide melting temperature shift” value (XL888 [2]) was 1.32 °C.
For “UniProt Q9Y6M1-1_phosphosite_164 (phosphosite position: 164)”, the “phosphopeptide melting temperature shift” value (XL888 [1]) was 1.24 ± 1.5 °C and the “phosphopeptide melting temperature shift” value (XL888 [2]) was -0.272 °C.
For “UniProt Q14C86-3_phosphosite_966 (phosphosite position: 966)”, the “phosphopeptide melting temperature shift” value (XL888 [1]) was 0.932 ± 0.22 °C and the “phosphopeptide melting temperature shift” value (XL888 [2]) was 0.741 °C.
For “UniProt Q53GS9-3_phosphosite_46 (phosphosite position: 46)”, the “phosphopeptide melting temperature shift” value (XL888 [1]) was -1.28 °C and the “phosphopeptide melting temperature shift” value (XL888 [2]) was -0.0975 ± 0.94 °C.
In the case of “UniProt Q53GS9-3_phosphosite_82 (phosphosite position: 82)”, the “phosphopeptide melting temperature shift” value (XL888 [1]) is reported as 1.6 ± 0.47 °C and the “phosphopeptide melting temperature shift” value (XL888 [2]) is reported as 1.2 °C.
In the case of “UniProt Q63HN8_phosphosite_1258 (phosphosite position: 1258)”, the “phosphopeptide melting temperature shift” value (XL888 [1]) is reported as 2.06 ± 1.5 °C and the “phosphopeptide melting temperature shift” value (XL888 [2]) is reported as 0.531 °C.
In the case of “UniProt Q66K74-2_phosphosite_631 (phosphosite position: 631)”, the “phosphopeptide melting temperature shift” value (XL888 [1]) is reported as 0.218 ± 1.1 °C and the “phosphopeptide melting temperature shift” value (XL888 [2]) is reported as -0.601 °C.
For “UniProt Q66K74-2_phosphosite_703 (phosphosite position: 703)”, the “phosphopeptide melting temperature shift” value (XL888 [1]) was -0.466 ± 0.97 °C and the “phosphopeptide melting temperature shift” value (XL888 [2]) was -0.517 °C.
“UniProt Q68DA7_phosphosite_235 (phosphosite position: 235)” was tested, and the “phosphopeptide melting temperature shift” value (XL888 [1]) was 0.749 ± 0.17 °C and the “phosphopeptide melting temperature shift” value (XL888 [2]) was 0.204 °C.
With “UniProt Q69YN4-3_phosphosite_1579 (phosphosite position: 1579)” the “phosphopeptide melting temperature shift” value (XL888 [1]) was 0.741 °C and the “phosphopeptide melting temperature shift” value (XL888 [2]) was -0.475 °C.
For “UniProt Q86W92-2_phosphosite_573 (phosphosite position: 573)”, the “phosphopeptide melting temperature shift” value (XL888 [1]) was 1.31 ± 0.38 °C and the “phosphopeptide melting temperature shift” value (XL888 [2]) was 0.34 °C.
For “UniProt Q86W92-2_phosphosite_788 (phosphosite position: 788)”, the “phosphopeptide melting temperature shift” value (XL888 [1]) was 1.49 ± 0.48 °C and the “phosphopeptide melting temperature shift” value (XL888 [2]) was 3.88 °C.
“UniProt Q96BR1-2_phosphosite_129 (phosphosite position: 129)” was tested, and the “phosphopeptide melting temperature shift” value (XL888 [1]) was 0.733 ± 0.45 °C and the “phosphopeptide melting temperature shift” value (XL888 [2]) was -0.535 °C.
With “UniProt Q96JG6_phosphosite_559 (phosphosite position: 559)” the “phosphopeptide melting temperature shift” value (XL888 [1]) was 0.259 ± 0.9 °C and the “phosphopeptide melting temperature shift” value (XL888 [2]) was 0.0263 °C.
With “UniProt Q96K21-2_phosphosite_344 (phosphosite position: 344)” the “phosphopeptide melting temperature shift” value (XL888 [1]) was 2 °C and the “phosphopeptide melting temperature shift” value (XL888 [2]) was -0.368 °C.
“UniProt Q96N67-2_phosphosite_1383 (phosphosite position: 1383)” was tested, and the “phosphopeptide melting temperature shift” value (XL888 [1]) was 0.534 ± 0.09 °C and the “phosphopeptide melting temperature shift” value (XL888 [2]) was 0.447 °C.
“UniProt Q96P48-3_phosphosite_229 (phosphosite position: 229)” was tested, and the “phosphopeptide melting temperature shift” value (XL888 [1]) was -1.14 °C and the “phosphopeptide melting temperature shift” value (XL888 [2]) was 2.07 °C.
For “UniProt Q96Q05-3_phosphosite_944 (phosphosite position: 944)”, the “phosphopeptide melting temperature shift” value (XL888 [1]) was 0.262 ± 0.36 °C and the “phosphopeptide melting temperature shift” value (XL888 [2]) was 0.918 °C.
“UniProt Q96S55-2_phosphosite_75 (phosphosite position: 75)” was tested, and the “phosphopeptide melting temperature shift” value (XL888 [1]) was 0.491 ± 1.2 °C and the “phosphopeptide melting temperature shift” value (XL888 [2]) was -1.22 °C.
For “UniProt Q641Q2-2_phosphosite_331 (phosphosite position: 331)”, the “phosphopeptide melting temperature shift” value (XL888 [1]) was 0.943 ± 0.88 °C and the “phosphopeptide melting temperature shift” value (XL888 [2]) was 0.476 °C.
In the case of “UniProt Q641Q2-2_phosphosite_333 (phosphosite position: 333)”, the “phosphopeptide melting temperature shift” value (XL888 [1]) is reported as 1.11 ± 0.77 °C and the “phosphopeptide melting temperature shift” value (XL888 [2]) is reported as 0.274 °C.
“UniProt Q765P7_phosphosite_612 (phosphosite position: 612)” was tested, and the “phosphopeptide melting temperature shift” value (XL888 [1]) was 2.88 °C and the “phosphopeptide melting temperature shift” value (XL888 [2]) was 0.515 °C.
“UniProt Q01105-2_phosphosite_24 (phosphosite position: 24)” was tested, and the “phosphopeptide melting temperature shift” value (XL888 [1]) was -0.175 ± 0.29 °C and the “phosphopeptide melting temperature shift” value (XL888 [2]) was -0.517 °C.
“UniProt Q01518-2_phosphosite_307 (phosphosite position: 307)” was tested, and the “phosphopeptide melting temperature shift” value (XL888 [1]) was 1.66 ± 1.6 °C and the “phosphopeptide melting temperature shift” value (XL888 [2]) was 1.22 °C.
“UniProt Q01831-2_phosphosite_94 (phosphosite position: 94)” was tested, and the “phosphopeptide melting temperature shift” value (XL888 [1]) was 0.926 °C and the “phosphopeptide melting temperature shift” value (XL888 [2]) was -2.34 °C.
“UniProt Q02078-3_phosphosite_98 (phosphosite position: 98)” was tested, and the “phosphopeptide melting temperature shift” value (XL888 [1]) was 1.19 ± 0.67 °C and the “phosphopeptide melting temperature shift” value (XL888 [2]) was 0.28 °C.
For “UniProt Q02952-3_phosphosite_143 (phosphosite position: 143)”, the “phosphopeptide melting temperature shift” value (XL888 [1]) was 1.64 ± 0.4 °C and the “phosphopeptide melting temperature shift” value (XL888 [2]) was 0.804 °C.
With “UniProt Q03001-8_phosphosite_1556 (phosphosite position: 1556)” the “phosphopeptide melting temperature shift” value (XL888 [1]) was 0.336 °C and the “phosphopeptide melting temperature shift” value (XL888 [2]) was -1.22 °C.
